Results published in the supplement of paper PMC8256030.
Several values for one entry are separate records, joined by “and”; a condition that tells them apart may be missing. Equal values may be shown once. Some of the results follow. This data set is noisy: repeats of one test often differ as much as different tests do.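 HEK293T cells were given each compound shortly before transfection with a reporter in which red mCherry is followed by the SARS-CoV-2 frameshift element and then GFP in the −1 frame, so GFP appears only after frameshifting.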

tested on: HEK293T; experiment: percent viability (nuclei count) relative to control; higher = more viable cells; conditions: 10 µM; 24 h

Row | Structure (SMILES) | percent viability
1 | CS(=O)(=O)c1ccc(C2=C(c3ccccc3)C(=O)OC2)cc1 [rofecoxib] | 142% and 266%
2 | CC(=O)[C@@]1(O)CC[C@H]2[C@@H]3C=C(Cl)C4=CC(=O)[C@@H]5C[C@@H]5[C@]4(C)[C@H]3CC[C@@]21C | 238%
3 | CN(C)C(=O)C(CCN1CCC(O)(c2ccc(Cl)cc2)CC1)(c1ccccc1)c1ccccc1 [loperamide] | 339% and 343%
4 | CC(C)[N+]1(C)[C@@H]2CC[C@H]1CC(OC(=O)C(CO)c1ccccc1)C2 (stereo partly specified) [Ipratropium·Br] | 264%
5 | CC(=O)NC(Cc1ccccc1)C(=O)O (stereo unspecified) | 328%
6 | c1cnc(N2CCN(Cc3ccc4c(c3)OCO4)CC2)nc1 [Piribedil·2HCl] | 253%
7 | OCCOc1ccc(/C(=C(/CCCl)c2ccccc2)c2ccccc2)cc1 [ospemifene] | 149%
8 | CO[C@H]1O[C@H](COS(=O)(=O)O)[C@@H](O[C@@H]2O[C@@H](C(=O)O)[C@@H](O[C@H]3O[C@H](COS(=O)(=O)O)[C@@H](O[C@@H]4O[C@H](C(=O)O)[C@@H](O[C@H]5O[C@H](COS(=O)(=O)O)[C@@H](O)[C@H](O)[C@H]5NS(=O)(=O)O)[C@H](O)[C@H]4O)[C@H](OS(=O)(=O)O)[C@H]3NS(=O)(=O)O)[C@H](O)[C@H]2OS(=O)(=O)O)[C@H](O)[C@H]1NS(=O)(=O)O [Fondaparinux sodium] | 236%
9 | CNCCC=C1c2ccccc2CCc2ccccc21 [nortriptyline] | 310%
10 | CCN(CC)CCOC(=O)C(c1ccccc1)c1ccccc1 | 435%
11 | CNC(=C[N+](=O)[O-])NCCSCc1ccc(CN(C)C)o1 | 121%
